Data reported in doi:10.1101/2025.08.18.670902.
These are yes or no findings as the source states them, for the method shown. Some results given as binding are weak or reduced against the parent protein; the word gives no strength.

Amino acid sequences for entries named in this document (tags omitted). Residues count along the entry.
UniProt Q14145, residues 321-611: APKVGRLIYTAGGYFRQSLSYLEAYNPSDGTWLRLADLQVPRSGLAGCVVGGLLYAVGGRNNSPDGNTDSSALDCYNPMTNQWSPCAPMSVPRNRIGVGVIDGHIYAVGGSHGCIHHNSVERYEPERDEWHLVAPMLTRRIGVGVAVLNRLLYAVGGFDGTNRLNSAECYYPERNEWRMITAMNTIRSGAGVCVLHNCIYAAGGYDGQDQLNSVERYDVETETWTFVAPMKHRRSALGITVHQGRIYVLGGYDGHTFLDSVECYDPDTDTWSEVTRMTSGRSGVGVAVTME

Target: Kelch fragment (Ala321-Glu611 of human KEAP1 protein) (human) (UniProt Q14145)
Experiment: SPR

binding: binds
Binder: MDLIDILWRQDIDLGVSREVFDFS [DLG^WT peptide (NRF2 residues 17-40)]
